Molecular target: rat MCH-1 (Rattus norvegicus, UniProt P97639)
Test: Radioligand binding assay at cloned rat MCH1 receptor ([3H] Compound A)
Design: host or cells: Peak rapid 293 (Peakr293) cells, transient calcium phosphate transfection, membranes
Settings: 0.08 nM [3H] Compound A, Peakr293 cell membranes, read-out: Ki (nM) rMCH1

By UniProt entry, the sequences of proteins in these tests, tags left out. Where a name states a change or a piece, a line headed by the entry shows the natural chain unless it says otherwise.
UniProt P97639: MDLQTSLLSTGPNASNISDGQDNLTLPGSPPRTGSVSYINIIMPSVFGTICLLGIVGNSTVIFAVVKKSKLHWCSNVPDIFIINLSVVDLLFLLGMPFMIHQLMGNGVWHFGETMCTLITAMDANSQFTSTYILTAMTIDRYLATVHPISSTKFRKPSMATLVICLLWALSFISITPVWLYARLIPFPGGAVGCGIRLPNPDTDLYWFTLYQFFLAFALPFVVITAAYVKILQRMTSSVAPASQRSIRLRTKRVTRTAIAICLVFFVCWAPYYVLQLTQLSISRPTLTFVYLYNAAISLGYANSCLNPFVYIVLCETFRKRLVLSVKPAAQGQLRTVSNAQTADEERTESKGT

Which Ki does the source give for `CC(C)C(=O)Nc1cccc(C2CCN(CCCCC(=O)c3cccc([N+](=O)[O-])c3)CC2)c1` [Example 665] here?
The Ki was 38.4 nM.
